# Data as given in PubChem BioAssay AID540276 (National Center for Advancing Translational Sciences (NCATS), 2011).
# Several values for one entry are separate records, joined by “and”; a condition that tells them apart may be missing. Identical values can stand only once. About 5,400 (1.8%) of roughly 300,000 compounds were called active. Inconclusive means that the source gave no clear call. Such entries were picked first, then a sample of the others. The call rests on the fitted dose curve; tested in HEK293 cells. Potencies of inconclusive entries are doubtful fits and often do not repeat.
# Test: qHTS for inhibitors of binding or entry into cells for Marburg Virus
# Conditions: Marburg virus pseudotyped entry inhibition, cell reporter; series mostly up to 37.8 µM
# Potency means the concentration at half of the fitted maximal effect.
row,SMILES,Potency
1,CCC(=NCc1ccc(Cl)c(Cl)c1)c1nc(-c2ccco2)oc1O,"inconclusive: 35.5 µM [inhibitor, single point]"
2,CN(c1ccc(OCC(=O)NCc2cccnc2)cc1)S(=O)(=O)c1ccc(Cl)cc1,"inconclusive: 1.26 µM [inhibitor, full curve]"
3,O=C(Nc1sc2c(c1C(=O)O)CCCCC2)c1ccco1,"inconclusive: 29.1 µM [inhibitor, single point]"
4,CCCCc1cc(-c2n[nH]c(=S)o2)c2ccccc2n1,inactive
5,CCN(CC)CCn1c(=N)n(CCOc2ccccc2)c2ccccc21,active: 4.11 µM
6,O=C(Nc1nc2ccccc2s1)C1CCN(C(=O)c2ccco2)CC1,"inconclusive: 11.2 µM [inhibitor, single point]"
7,COc1ccc(-n2c(C)c(C)c3c(NCCCN(C)C)ncnc32)cc1,"inconclusive: 7.94 µM [inhibitor, partial curve, poor fit]"
8,CCCC(=O)Nc1ccc(Cl)c(NC(=O)CC)c1,"inconclusive: 0.562 µM [inhibitor, full curve, poor fit]"
9,COCCCNC(=O)c1ccc(Cn2c(=O)c3ccccc3n(Cc3ccccc3C#N)c2=O)cc1,"inconclusive: 29.1 µM [inhibitor, single point]"
10,COc1cc2[nH]c(=O)n(CCC(=O)NCCC(C)C)c(=O)c2cc1OC,inactive
11,CO/N=C/c1ccc(OC)c(Oc2nc(OC)cc(OC)n2)c1,"inconclusive: 1.12 µM [inhibitor, full curve]"
12,Cc1nnc(SCCn2c(N3CCN(Cc4ccccc4)CC3)nc3c2c(=O)[nH]c(=O)n3C)s1,"inconclusive: 18.3 µM [inhibitor, single point]"
13,CCC(CO)NCc1ccc(OC2CCCC2)cc1 (stereo not given),"inconclusive: 20.6 µM [inhibitor, single point]"
14,CCOC(=O)c1ccc(NC(=O)C2C3CCC(C3)C2C(=O)O)cc1 (stereo not given),"inconclusive: 2.82 µM [activator, full curve, poor fit]"
15,Cc1cc(C(=O)COc2ccccc2[N+](=O)[O-])c(C)n1-c1cccc(S(=O)(=O)N2CCOCC2)c1,"inconclusive: 3.55 µM [inhibitor, full curve, poor fit]"
16,COc1cc(OC)cc(C(=O)N2CCN(C(=O)Cc3ccccc3)CC2)c1,"inconclusive: 1 µM [activator, partial curve, poor fit]"
17,CC(=O)Nc1cccc(NC(=O)CSc2ncc(C(=O)Nc3ccc(F)cc3)c(=O)n2C)c1,"inconclusive: 35.5 µM [inhibitor, single point]"
18,O=C(COc1ccc(F)cc1)NCCc1nc2ccccc2[nH]1,"inconclusive: 6.31 µM [inhibitor, single point]"
19,COc1ccc(OC)c(C2C(C#N)=C(N)Oc3c2c(C)nn3-c2cccc(Cl)c2)c1 (stereo not given),"inconclusive: 23.1 µM [inhibitor, single point]"
20,CC(C)(c1ccccc1)c1ccc(OCc2ccc(C(=O)O)o2)cc1,"inconclusive: 0.447 µM [activator, full curve]"
21,CCCCn1c(NC(=O)c2ccccc2)c(C#N)c2nc3ccccc3nc21,"inconclusive: 25.9 µM [inhibitor, single point]"
22,COCCN(C(=O)C(C)N1C(=O)c2ccccc2C1=O)c1c(N)n(CC(C)C)c(=O)[nH]c1=O (stereo not given),"inconclusive: 0.631 µM [activator, single point]"

row,SMILES,Potency
1,O=C(O)c1ccc(COc2ccccc2/C=C2/NC(=O)N(c3cccc(Cl)c3)C2=O)cc1,"inconclusive: 5.62 µM [activator, single point]"
2,CC(=O)C(Cc1ccccc1)NC(=O)COC(=O)CCN1C(=O)C2CC=CCC2C1=O (stereo not given),"inconclusive: 1.26 µM [activator, partial curve, poor fit]"
3,COc1ccc(NC(=O)c2cc(N3C(=O)C4C5CCC(C5)C4C3=O)ccc2Cl)c(OC)c1 (stereo not given),inactive
4,CCCN1CCC(NC(=O)CCc2nnc(-c3ccccc3)o2)CC1,"inconclusive: 5.62 µM [inhibitor, single point]"
5,CC(C)(C)c1ccc(CSc2nnc(-c3ccccn3)n2Cc2ccco2)cc1,"inconclusive: 12.6 µM [inhibitor, single point]"
6,CCOC(=O)C1=C(C)N=c2s/c(=C\c3ccc(OCC(=O)O)cc3)c(=O)n2C1c1ccc(OC(C)C)cc1 (stereo not given),"inconclusive: 35.5 µM [inhibitor, single point]"
7,CCN(Cc1nc(-c2cccc(Cl)c2)no1)CC1CCCO1 (stereo not given),inactive
8,CC(C)(CNC(=O)CNC(=O)c1ccc(Cl)cc1Cl)N1CCOCC1,inactive
9,C=CCNC(=O)CC(=O)N/N=C/c1ccc(F)cc1,inactive
10,CC(=O)Nc1ccc(NC(=O)c2ccccc2N(Cc2ccccc2)S(C)(=O)=O)cc1,inactive
11,COc1cccc(C(=O)OCC(=O)N2CCc3ccccc32)c1OC,"inconclusive: 35.5 µM [activator, single point]"
12,O=C(CCN1CCC[C@H]1Cc1ccccc1)c1ccc2c(c1)OCCO2,"inconclusive: 35.5 µM [inhibitor, single point]"
13,O=C(Nc1ccc2c(c1)CCC2)c1cccc(S(=O)(=O)Nc2ccccc2Cl)c1,"inconclusive: 20.6 µM [activator, partial curve, poor fit]"
14,Cn1c(=O)n(CCc2ccccc2)c(=O)c2c1nc1n2CCCN1Cc1ccccc1,"inconclusive: 22.4 µM [inhibitor, single point]"
15,O=C(/C=C/c1ccccc1Cl)NC1CCS(=O)(=O)C1 (stereo not given),"inconclusive: 11.2 µM [activator, partial curve, poor fit]"
16,C#CCCOC(=O)N1C2=NC(C(=O)OC)=C(C(=O)OC)[C@@H]3N(C)c4ccccc4[C@]23C[C@H]1C(=O)OC,"inconclusive: 6.68 µM [activator, single point]"
17,COc1cccc2sc(=NC(=O)CS(=O)(=O)c3ccc(F)cc3)n(C)c12,inactive
18,Cc1nn(C(C)C(=O)Nc2ccccc2Cl)c(=O)c2nn(-c3ccccc3)c(C)c12 (stereo not given),"inconclusive: 11.2 µM [inhibitor, partial curve, poor fit]"
19,Cc1onc(-c2ccccc2Cl)c1C(=O)Nc1nc2c(s1)CCCC2,"inconclusive: 35.5 µM [inhibitor, single point]"
20,COc1ccc(NC(=O)C(=O)Nc2cccc3cccnc23)cc1OC,"inconclusive: 5.01 µM [inhibitor, single point]"
21,O=C(CSc1nc(-c2ccco2)cc(C(F)(F)F)n1)NCCc1ccccc1,"inconclusive: 5.62 µM [inhibitor, partial curve, poor fit]"
22,NS(=O)(=O)c1ccc(CCNC(=O)c2ccc(Cl)c(S(=O)(=O)N3CCCCCC3)c2)cc1,"inconclusive: 15.8 µM [inhibitor, single point]"

row,SMILES,Potency
1,CS(=O)c1ccc(-n2c(=O)n(Cc3ccccc3)c(=O)c3[nH]cnc32)cc1 (stereo not given),inactive
2,CCOc1ccc(Nc2cc(C)nc3nc(Cc4ccc(Cl)cc4)nn23)cc1,inactive
3,Cc1nc([N+](=O)[O-])c(SCC(O)CCl)n1Cc1ccc(Cl)cc1 (stereo not given),"inconclusive: 14.1 µM [inhibitor, partial curve, poor fit]"
4,CCOCCCn1c(=N)c(C(=O)NCc2cccnc2)cc2c(=O)n3cc(C)ccc3nc21,inactive
5,NC(=O)[C@@H]1CCCN1Cc1nc(-c2cccs2)no1,inactive
6,Cc1cccc(NC(=O)Nc2ccc(Br)cc2)n1,"inactive and inconclusive: 1.41 µM [activator, partial curve, poor fit]"
7,COc1cccc(C(C(=O)NC2CCCC2)N(C(=O)c2ccco2)c2cccc(C(C)=O)c2)c1OC (stereo not given),"inconclusive: 35.5 µM [inhibitor, single point]"
8,CSc1nc(NCC(C)C)nc(N2CCOCC2)n1,"inconclusive: 13 µM [inhibitor, partial curve, poor fit]"
9,CCOCC(=O)Nc1c(C(=O)Nc2ccc3c(c2)OCO3)oc2ccccc12,"inconclusive: 0.501 µM [activator, partial curve, poor fit]"
10,CCOc1cccc(C(=O)Nc2ccc3[nH]ncc3c2)c1,inactive
11,COc1ccccc1NS(=O)(=O)c1ccc(N2CCOCC2)c(NC(=O)c2ccco2)c1,inactive
12,O=C(/C=C/c1ccc(OCc2c(F)cccc2Cl)cc1)N1CCOCC1,"inconclusive: 2.24 µM [inhibitor, full curve, poor fit]"
13,CN1C(=O)C2(c3ccccc31)N(C)CC(c1ccccn1)C21SC(=S)N(Cc2ccco2)C1=O (stereo not given),"inconclusive: 32.6 µM [inhibitor, single point]"
14,Cc1ccccc1CSCC(=O)NC1CCCC1,"inconclusive: 0.224 µM [inhibitor, partial curve, poor fit]"
15,COc1ccc(-c2cc(C(F)(F)F)nc(SCC(=O)N3CCCCC3C)n2)cc1OC (stereo not given),"inconclusive: 3.55 µM [activator, partial curve, poor fit]"
16,Nc1nc(OCC(F)(F)F)cc(Oc2ccccc2F)n1,inactive
17,CC(C(=O)O)n1cc(Cl)cn1 (stereo not given),inactive
18,COc1cc2c(cc1OC)C(c1cccc([N+](=O)[O-])c1)=NCC2,"inconclusive: 1.26 µM [activator, single point]"
19,Cc1cccc(C(=O)Oc2ccccc2C2C[C@]3(C)CC(=O)NC3N2C(=O)c2cccc(C)c2)c1 (stereo not given in full),inactive
20,CCOC(=O)CN1C(=O)[C@@]2(CC(C)=CC[C@@H](COc3ccccc3)O2)c2c(Br)cccc21,inactive
21,NS(=O)(=O)c1ccc(CCNc2ncnc3c2c(-c2ccccc2)cn3-c2ccc(F)cc2)cc1,"inconclusive: 35.5 µM [inhibitor, single point]"
